Paper PMC3983036
No constants are given. Whether binding was seen depends on the method and setting. In cells and extracts the contact can be indirect. A yes stands for co-enrichment or nearness to the bait. Other partners may have been found. No binding means not detected with the bait. Sequences can lack the tags named with a protein.

target: T1, Myc::Ecd fusion protein (Drosophila Ecdysoneless) (Drosophila melanogaster) (UniProt Q9W032); assay: affinity purification with mass spectrometry; extracts of S2 cells expressing Myc::Ecd or the Myc tag alone (pTMW) affinity purified by the Myc epitope, silver-stained SDS-PAGE, cut-out gel sections digested with trypsin and analysed by LC-MS/MS
T1 sequence: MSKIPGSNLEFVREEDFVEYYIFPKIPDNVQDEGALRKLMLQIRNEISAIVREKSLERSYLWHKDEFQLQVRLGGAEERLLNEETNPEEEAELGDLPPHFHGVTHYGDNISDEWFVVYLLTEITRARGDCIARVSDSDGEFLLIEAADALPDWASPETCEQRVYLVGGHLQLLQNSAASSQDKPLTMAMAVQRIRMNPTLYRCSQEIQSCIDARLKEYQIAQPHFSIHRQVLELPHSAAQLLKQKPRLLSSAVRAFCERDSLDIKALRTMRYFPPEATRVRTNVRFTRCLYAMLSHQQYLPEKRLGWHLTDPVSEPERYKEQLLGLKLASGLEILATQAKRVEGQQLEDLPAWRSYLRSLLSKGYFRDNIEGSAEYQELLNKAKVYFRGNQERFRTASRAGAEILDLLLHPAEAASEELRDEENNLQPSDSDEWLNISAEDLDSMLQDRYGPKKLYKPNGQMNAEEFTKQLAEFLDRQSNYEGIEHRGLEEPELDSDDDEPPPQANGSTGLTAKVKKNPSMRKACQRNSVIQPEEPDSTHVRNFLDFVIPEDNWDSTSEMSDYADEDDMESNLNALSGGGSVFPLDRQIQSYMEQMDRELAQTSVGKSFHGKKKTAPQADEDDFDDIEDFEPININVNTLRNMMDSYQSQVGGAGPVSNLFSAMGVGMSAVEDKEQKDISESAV

binding | Substance
no binding | Aar2 (endogenous, Drosophila S2 cells)
binds | Snu114 (endogenous, Drosophila S2 cells)
binds | Prp8 (endogenous, Drosophila S2 cells) (from UniProt A1Z8U0 1-2396)
